# Values from PubChem BioAssay AID1259405 (NCATS, 2018)
# Test: 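Knock-downs that lift recombinant protein yield in hamster ovary cells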 (primary screen)
# Cells: Chinese hamster CHO-K1 ovary cells with stable secreted eGFP expression
# Knock-down reagent: single siRNA against mouse genes, 0.8 pmol siRNA per well (2 µl of 400 nM stock)
# Time to read-out: 3 days
# Measured: 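Percent of the per-plate non-targeting control median for intracellular GFP per well by laser scanning cytometry and for cell viability by ATP luminescence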
# Scale: GFP, % of control: higher = more GFP per well, higher productivity; viability (ATP), % of control: higher = more viable cells (more ATP)
# Rule for the call: 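a knock-down is called active if GFP reaches 120% or more of non-targeting control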
# Here is one part, drawn at random, of about 50,000 reagents tested. About 4,000 of them (8%) were called active. 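Mouse siRNA library applied to hamster cells; one well for each siRNA.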 The numbers tell different reagents against one gene apart. No sequences are given here.
Target gene,reagent,"GFP, % of control","viability (ATP), % of control",activity call
Sumo1,1,79.5,110,inactive
Sumo1,2,83.5,86.3,inactive
Sumo1,3,105,113,inactive
Sh3d19,1,84.6,89.1,inactive
Sh3d19,2,51.2,67,inactive
Sh3d19,3,62.6,78.7,inactive
Cadm4,1,132,89.8,active
Cadm4,2,83.8,72.2,inactive
Cadm4,3,101,102,inactive
Med8,1,106,76.1,inactive
Med8,2,98.3,88.1,inactive
Med8,3,58.5,77.4,inactive
Or13p4,1,81.6,67.7,inactive
Or13p4,2,45.7,52.6,inactive
Or13p4,3,42.8,61.1,inactive
Cftr,1,104,94.1,inactive
Cftr,2,72.2,70.8,inactive
Cftr,3,53.2,77.2,inactive
Gcat,1,34.4,80.7,inactive
Gcat,2,76.5,79.3,inactive
Gcat,3,82.9,103,inactive
Or4a66,1,56.3,73.2,inactive
Or4a66,2,67.9,83.6,inactive
Or4a66,3,40.5,80.9,inactive
Otulinl,1,96.6,91.2,inactive
Otulinl,2,79.5,110,inactive
Otulinl,3,160,152,active
Xkr8,1,48.3,74.6,inactive
Xkr8,2,51.8,55.4,inactive
Xkr8,3,87.6,97.2,inactive
Abat,1,75.3,66.6,inactive
Abat,2,106,125,inactive
Abat,3,104,107,inactive
Mtfp1,1,93.6,89.7,inactive
Mtfp1,2,91.3,75.8,inactive
Mtfp1,3,78.7,68.4,inactive

Active calls (from the list above):
Target gene,reagent,"GFP, % of control","viability (ATP), % of control",activity call
Cadm4,1,132,89.8,active
Otulinl,3,160,152,active
